Here are results for 1 compound from publication PMC10800023 (Human Molecular Genetics, 2023).

This data set concerns P-gp (MDR1). As to the kind of experiment: MDR1-MDCK permeability / P-gp efflux assay. To be noted: MDCK-MDR1, pH 7.4. The method, then:
To measure transport by P-gp, Madin-Darby canine kidney (MDCK) cells that had been transfected with the human P-gp (MDR1) gene were plated in a Transwell plate and cultured until polarized. MDCK cells that are not transfected with human P-gp were used as a control. Compounds were added to either the apical or the basolateral side of the cells, and transport across the membrane was measured.
Testing for permeability and MDR1 substrate assessment was done in MDCK cells transfected to overexpress human MDR1 gene that encodes efflux transporter protein (P-gp). […] Briefly, cells were maintained in Dulbecco’s modified Eagle medium (DMEM) with 10% fetal bovine serum and 1% penicillin/streptomycin in a humidified incubator at 37°C with 5% CO2. The study was performed by Absorption Systems (now Pharmaron; Exton, PA). The MDR1-MDCK and MDCK control cell lines were seeded into 12-well plates for 7 days. Integrity of monolayer tight junctions was monitored preincubation by transepithelial electrical resistance (TEER) measurement. […] Compound levels were measured by LC/MS–MS. […] Papp values were calculated considering compound concentrations across the monolayer and cell surface area. Efflux ratios were calculated based on Papp B > A over Papp A > B. The difference between the MDR1-MDCK and the MDCK cell efflux ratios was also calculated. […]

`CC(C)NCC(O)COc1ccc(CC(N)=O)cc1` (stereo not shown) [atenolol] returned a Papp at 60 min of 0.0464 to 0.0873 ×10⁻⁶ cm/s.

As a reminder, the Papp is the rate of passage across a membrane or cell layer, normalised by area and donor concentration. A higher Papp goes with ready permeation.
